PubChem BioAssay AID743454, Peter MacCallum Cancer Centre | 2014
Assay: 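Knock-downs lowering viability or raising caspase 3/7 activity in vorinostat-treated resistant cells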 (primary screen). Cell system: human HCT116-VR colon cancer cells, selected for vorinostat resistance. Reagent: siRNA pool against human genes, 40 nM siRNA pool. Time to read-out: vorinostat for 24 h, read-out about 72 h after transfection. Conditions: vorinostat at 2.5 µM final. Read-out: 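Cell viability by CellTiter-Fluor and caspase 3/7 activity by luminescence, each scaled to mock wells per plate, duplicates averaged, then robust z-scored over all plates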. Scale: viability robust z-score: higher = more viable cells than screen typical; caspase robust z-score: higher = more caspase 3/7 activity than screen typical. Hit rule: 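a knock-down is a hit when classed RV1 or RV2 for lowered viability, or CA1 or CA2 for caspase activation; those lethal without drug were dropped; hits were retested singly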.
Here is an unselected part of about 18,000 reagents. 450 of all reagents (2.5%) count as active. 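Single biological run; no consistent viability z cut-off exists, so the class columns, not z-scores, define the calls.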 The numbers tell different reagents against one gene apart. Reagent sequences are not shown.

| gene symbol | reagent no. | viability hit class | caspase hit class | viability robust z-score | caspase robust z-score | activity call |
| --- | --- | --- | --- | --- | --- | --- |
| TMEM167B | 1 | no change | no change | -0.84 | 1.43 | inactive |
| MYCBPAP | 1 | RV2 (reduced viability) | no change | -3.07 | -0.88 | active |
| HEY1 | 1 | no change | no change | 0.08 | -0.68 | inactive |
| RASA1 | 1 | no change | no change | 0.28 | -1.02 | inactive |
| SLC18B1 | 1 | no change | no change | 0.58 | -0.26 | inactive |
| SPINK14 | 1 | no change | no change | -0.22 | -1.04 | inactive |
| TRAP1 | 1 | no change | no change | 0.05 | -0.87 | inactive |
| RHBDD2 | 1 | no change | no change | 1.25 | 0.29 | inactive |
| SLC25A45 | 1 | no change | no change | -0.57 | -0.24 | inactive |
| FCGR2C | 1 | no change | no change | -0.57 | 0.4 | inactive |
| AQR | 1 | no change | CA2 (caspase activation) | -3.85 | 5.27 | active |
| CUL3 | 1 | no change | no change | -0.02 | -0.38 | inactive |
| FRY | 1 | no change | no change | 0.38 | -0.82 | inactive |
| IER5L | 1 | no change | no change | 2.62 | 1 | inactive |
| OR2W5 | 1 | no change | CA1 (caspase activation) | 0.07 | 7.18 | active |
| C14orf180 | 1 | no change | no change | -0.8 | 1.34 | inactive |
| KCTD4 | 1 | no change | no change | -1.03 | 0.76 | inactive |
| RAC3 | 1 | no change | no change | 0.94 | 0.2 | inactive |
| PDGFRL | 1 | no change | no change | 0.23 | 0.46 | inactive |
| MCM6 | 1 | no change | no change | -0.3 | -0.48 | inactive |
| PRDM7 | 1 | no change | no change | 0.46 | -0.79 | inactive |
| LIG1 | 1 | no change | no change | -0.15 | 0.04 | inactive |
| STYXL1 | 1 | no change | no change | -0.48 | -0.24 | inactive |
| CPB1 | 1 | no change | no change | -0.51 | 3.32 | inactive |
| DEPDC5 | 1 | no change | no change | -0.2 | -0.08 | inactive |
| RHOXF2 | 1 | no change | no change | -1.55 | 0.2 | inactive |
| KAZALD1 | 1 | no change | no change | -0.64 | -0.39 | inactive |
| ARSA | 1 | no change | CA2 (caspase activation) | -1.21 | 5.64 | active |
| KCNIP1 | 1 | no change | no change | -0.6 | 0.84 | inactive |
| ARSK | 1 | no change | no change | 1.21 | 3.19 | inactive |
| BABAM2 | 1 | no change | no change | -0.66 | 0.14 | inactive |
| KRTAP5-6 | 1 | no change | no change | -0.79 | -0.35 | inactive |
| FAM221B | 1 | no change | no change | -2.81 | 1.01 | inactive |
| UBE2B | 1 | no change | no change | 0.22 | -0.65 | inactive |
| RNF157 | 1 | no change | no change | -1.71 | 4.98 | inactive |
| KDM3A | 1 | no change | no change | -0.48 | -0.98 | inactive |
| SETBP1 | 1 | no change | no change | -0.59 | -0.88 | inactive |
| MT3 | 1 | RV2 (reduced viability) | no change | -3.12 | 3.59 | active |
| ANGEL1 | 1 | no change | no change | 0.14 | 1.96 | inactive |
| SH2D6 | 1 | no change | no change | 0.64 | 0.5 | inactive |
| HLA-F | 1 | no change | no change | 0.48 | 1.05 | inactive |
| PWP2 | 1 | no change | no change | -2.26 | 1.48 | inactive |
| GSDME | 1 | no change | no change | -0.48 | -0.5 | inactive |
| RNASE9 | 1 | no change | no change | 0.26 | -0.16 | inactive |
| BRD1 | 1 | no change | no change | 0.98 | 0.18 | inactive |
| ELMOD1 | 1 | no change | no change | 0.58 | 2.42 | inactive |
| ELMOD1 | 2 | no change | no change | -1.6 | 4.46 | inactive |
| MAP3K7CL | 1 | no change | no change | 0.17 | -0.48 | inactive |
| PDRG1 | 1 | no change | no change | 1.07 | 0.18 | inactive |
| C1orf54 | 1 | no change | no change | -0.73 | -0.34 | inactive |
| SNCAIP | 1 | no change | no change | 0.37 | 1.23 | inactive |
| BOLL | 1 | no change | no change | 0.46 | -1.42 | inactive |
| PRPSAP2 | 1 | no change | no change | 0.34 | -0.44 | inactive |
| H3C3 | 1 | no change | no change | -0.46 | 2.91 | inactive |
| NOX5 | 1 | no change | no change | 0.52 | -0.8 | inactive |
| ASB3 | 1 | no change | no change | -0.56 | 0.82 | inactive |
| SCD5 | 1 | no change | no change | 0.4 | -0.26 | inactive |
| NECTIN4 | 1 | no change | no change | -1.31 | -0.96 | inactive |
| PSMG1 | 1 | no change | no change | 1.29 | -0.66 | inactive |
| MIOX | 1 | no change | no change | -2.33 | 4.54 | inactive |
| FADS2 | 1 | no change | no change | -0.28 | 0.72 | inactive |
| OLFML2A | 1 | no change | no change | -0.92 | 2.33 | inactive |
| NPR3 | 1 | no change | no change | 1.35 | -0.34 | inactive |
| NPR3 | 2 | no change | no change | 0.34 | -0.66 | inactive |
| TAAR8 | 1 | no change | no change | 0.9 | -0.67 | inactive |
| SEC62 | 1 | no change | no change | -0.5 | 1.19 | inactive |
| METTL17 | 1 | no change | no change | 1.5 | -0.69 | inactive |
| DENND4C | 1 | no change | no change | -0.13 | -0.95 | inactive |
| OPN1MW2 | 1 | no change | no change | 0.72 | 1.12 | inactive |
| MTHFD1 | 1 | no change | no change | 0.58 | -0.78 | inactive |
| WFDC5 | 1 | no change | no change | -0.26 | 0.45 | inactive |
| RDH13 | 1 | no change | no change | 1.48 | -0.28 | inactive |
| A4GALT | 1 | no change | no change | 0.16 | -0.68 | inactive |
